In the assay the test system is MCF-7 human breast cancer cell line. In words: Alamar Blue assay for antiproliferative effects. The conditions noted are these: MCF7, 72 h, MCF-7, 72 h. The assay is classed as cell-based.

The molecule `CC/C(=C(\c1ccccc1)c1ccc(OCCN(C)C)cc1)c1ccccc1` [Tamoxifen, reference compound] had an IC50 of 2.13 µM.

The values are drawn from article PMC6151695, “Novel Selective Estrogen Receptor Ligand Conjugates Incorporating Endoxifen-Combretastatin and Cyclofenil-Combretastatin Hybrid Scaffolds: Synthesis and Biochemical Evaluation” (Molecules : A Journal of Synthetic Chemistry and Natural …, 2017).
